Test results published in the supplement of paper PMC4604168 (melanoma cell lines).
Some of the results follow. Single values are uncertain, as repeats are few or missing.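 Cells were imaged in 1,536-well plates, and nuclei stained with an antibody against cleaved PARP were counted against all DNA-stained nuclei to give the apoptosis fraction. Screening doses were chosen to leave most cells alive, and resting and induced cleaved-PARP levels differ strongly between cell lines.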

Test system: A2058
Experiment: cleaved PARP positive nuclei fraction relative to DMSO control; melanoma cells; higher = more apoptosis
Conditions: library dose: low library concentration; 72 h

First: N#Cc1c(O)c2c(-c3ccc(-c4ccccc4O)cc3)csc2[nH]c1=O + Cn1cc(/C=C2\C(=O)Nc3cccnc32)c2ccccc21 [GW441756] (first compound 2 µM, partner dose 0.4 µM)
Second: O=C(O)c1ccc(-c2c[nH]c3ncc(-c4ccccc4)cc23)cc1C1CCCC1 + Oc1cc(-c2nc(-c3ccccc3)[nH]c2-c2ccncc2)ccc1Cl [L779450] (first compound 0.16 µM, partner dose 0.2 µM)
The “cleaved PARP positive nuclei fraction” value of the first is higher: 40.6% for the first, 11.4% for the second.

Compared with `NCC(=O)Nc1ccc(-n2nc(C(F)(F)F)cc2-c2ccc3c(ccc4ccccc43)c2)cc1` + O=C(O)C(=O)Nc1sc2c(c1C(=O)O)CCNC2 [TCS401] (first compound 1 µM, partner dose 1.66667 µM), `COc1cc2ncnc(Nc3ccc(Oc4ccccc4)cc3)c2cc1OC` + O=C(O)C(=O)Nc1sc2c(c1C(=O)O)CCNC2 [TCS401] (first compound 2 µM, partner dose 1.66667 µM) is higher in “cleaved PARP positive nuclei fraction” value: 62.4% for the first, 117% for the second.

Compared with `NCC(=O)Nc1ccc(-n2nc(C(F)(F)F)cc2-c2ccc3c(ccc4ccccc43)c2)cc1` + CCc1ccc(CCOc2ccc(CC3SC(=O)NC3=O)cc2)nc1 [pioglitazone] (first compound 1 µM, partner dose 2 µM), `O=C(Nc1ccccc1)c1cc([N+](=O)[O-])ccc1Cl` + CC(C)CCN1c2nc(Nc3cc(F)c(O)c(F)c3)ncc2N(C)C(=O)C1C [BID1870] (first compound 2 µM, partner dose 0.2 µM) is higher in “cleaved PARP positive nuclei fraction” value: 75.8% for the first, 120% for the second.

Compared with `CN(C)S(=O)(=O)c1ccc2c(c1)/C(=C/c1cc3c([nH]1)CCCC3)C(=O)N2` + COc1ccc(COc2ccc(Cc3cnc(N)nc3N)cc2OC)cc1 [GW2580] (first compound 0.4 µM, partner dose 1 µM), `COc1ccc(COc2ccc(Cc3cnc(N)nc3N)cc2OC)cc1` + c1cc(-c2cnn3cc(-c4ccc(OCCN5CCCCC5)cc4)cnc23)ccn1 [Dorsomorphin] (first compound 1 µM, partner dose 0.4 µM) is higher in “cleaved PARP positive nuclei fraction” value: 50.5% for the first, 237% for the second.

First: COc1ccc(-c2ccc3c(N4CCOCC4)nc(N4C[C@@H](C)O[C@@H](C)C4)nc3n2)cc1CO + Oc1cc(-c2nc(-c3ccccc3)[nH]c2-c2ccncc2)ccc1Cl [L779450] (first compound 0.02 µM, partner dose 0.2 µM)
Second: CCN(CC)CCCCNc1ncc2cc(-c3cc(OC)cc(OC)c3)c(NC(=O)NC(C)(C)C)nc2n1 + Cc1cc([N+](=O)[O-])ccc1NS(=O)(=O)c1cc(Cl)ccc1Cl [FH535] (first compound 0.1 µM, partner dose 1 µM)
The “cleaved PARP positive nuclei fraction” value of the first is higher: 168% for the first, 110% for the second.

For `O=S(=O)(c1ccccc1)N(CC(F)(F)F)c1ccc(C(O)(C(F)(F)F)C(F)(F)F)cc1` + Cc1cc([N+](=O)[O-])ccc1NS(=O)(=O)c1cc(Cl)ccc1Cl [FH535] (first compound 1.4 µM, partner dose 1 µM), the “cleaved PARP positive nuclei fraction” value was 25.6%.

Test system: A375
Experiment: as above
Conditions: library dose: low library concentration; 72 h

Compared with `CN(C)S(=O)(=O)c1ccc2c(c1)/C(=C/c1cc3c([nH]1)CCCC3)C(=O)N2` + COc1cc2ncnc(Nc3ccc(Oc4ccccc4)cc3)c2cc1OC [SrcI1] (first compound 0.4 µM, partner dose 2 µM), `O=C1NC(=O)/C(=C/c2ccc(-c3ccc(F)cc3O)o2)S1` + c1cc(-c2cnn3cc(-c4ccc(OCCN5CCCCC5)cc4)cnc23)ccn1 [Dorsomorphin] (first compound 1 µM, partner dose 0.4 µM) is lower in “cleaved PARP positive nuclei fraction” value: 218% for the first, 101% for the second.

First: NCC(=O)Nc1ccc(-n2nc(C(F)(F)F)cc2-c2ccc3c(ccc4ccccc43)c2)cc1 + Cn1cc(/C=C2\C(=O)Nc3cccnc32)c2ccccc21 [GW441756] (first compound 1 µM, partner dose 0.4 µM)
Second: COc1cc2ncnc(Nc3ccc(Oc4ccccc4)cc3)c2cc1OC + c1cc(-c2cnn3cc(-c4ccc(OCCN5CCCCC5)cc4)cnc23)ccn1 [Dorsomorphin] (first compound 2 µM, partner dose 0.4 µM)
The “cleaved PARP positive nuclei fraction” value of the first is higher: 2800% for the first, 45.6% for the second.

Compared with `O=C(Nc1ccccc1)c1cc([N+](=O)[O-])ccc1Cl` + Oc1cc(-c2nc(-c3ccccc3)[nH]c2-c2ccncc2)ccc1Cl [L779450] (first compound 2 µM, partner dose 0.2 µM), `COC(=O)c1sccc1S(=O)(=O)Nc1ccc(Nc2ccccc2)cc1OC` + COc1ccc(COc2ccc(Cc3cnc(N)nc3N)cc2OC)cc1 [GW2580] (first compound 1 µM, partner dose 1 µM) is higher in “cleaved PARP positive nuclei fraction” value: 63.8% for the first, 73.1% for the second.

First: COc1cc2c(Oc3ccc4[nH]c(C)cc4c3F)ncnc2cc1OCCCN1CCCC1 [cediranib] + CCN(CC)CCCCNc1ncc2cc(-c3cc(OC)cc(OC)c3)c(NC(=O)NC(C)(C)C)nc2n1 [PD173074] (first compound 0.4 µM, partner dose 0.1 µM)
Second: COc1cc2ncnc(Nc3ccc(Oc4ccccc4)cc3)c2cc1OC + Oc1cc(-c2nc(-c3ccccc3)[nH]c2-c2ccncc2)ccc1Cl [L779450] (first compound 2 µM, partner dose 0.2 µM)
The “cleaved PARP positive nuclei fraction” value of the first is lower: 79% for the first, 129% for the second.

Going from `O=C1NC(=O)/C(=C/c2ccc(-c3ccc(F)cc3O)o2)S1` + COc1cc(N2CCC(N3CCN(C)CC3)CC2)ccc1Nc1ncc(Cl)c(Nc2ccccc2S(=O)(=O)C(C)C)n1 [NVP-TAE684] (first compound 1 µM, partner dose 0.08 µM) to `CCc1ccc(CCOc2ccc(CC3SC(=O)NC3=O)cc2)nc1` (centres undefined) [pioglitazone] + COC(=O)c1sccc1S(=O)(=O)Nc1ccc(Nc2ccccc2)cc1OC [GSK0660] (first compound 2 µM, partner dose 1 µM), the “cleaved PARP positive nuclei fraction” value falls from 182% to 72.5%.

First: O=C(O)c1ccc(-c2c[nH]c3ncc(-c4ccccc4)cc23)cc1C1CCCC1 + O=C(O)C(=O)Nc1sc2c(c1C(=O)O)CCNC2 [TCS401] (first compound 0.16 µM, partner dose 1.66667 µM)
Second: O=C(Nc1ccccc1)c1cc([N+](=O)[O-])ccc1Cl + COc1ccc(COc2ccc(Cc3cnc(N)nc3N)cc2OC)cc1 [GW2580] (first compound 2 µM, partner dose 1 µM)
The “cleaved PARP positive nuclei fraction” value of the first is higher: 205% for the first, 56% for the second.

Going from `CN(NC(=O)CC(=O)NN(C)C(=S)c1ccccc1)C(=S)c1ccccc1` + CCN(CC)CCCCNc1ncc2cc(-c3cc(OC)cc(OC)c3)c(NC(=O)NC(C)(C)C)nc2n1 [PD173074] (first compound 0.006 µM, partner dose 0.1 µM) to `O=C(Nc1ccccc1)c1cc([N+](=O)[O-])ccc1Cl` + COc1ccc2c(c1)CCC1C2CCC2(C)C(NCCCCCCN3C(=O)C=CC3=O)CCC12 [U73122] (first compound 2 µM, partner dose 0.4 µM), the “cleaved PARP positive nuclei fraction” value falls from 6170% to 70.2%.

First: NCC(=O)Nc1ccc(-n2nc(C(F)(F)F)cc2-c2ccc3c(ccc4ccccc43)c2)cc1 + Cc1cc([N+](=O)[O-])ccc1NS(=O)(=O)c1cc(Cl)ccc1Cl [FH535] (first compound 1 µM, partner dose 1 µM)
Second: O=C(O)c1ccc(-c2c[nH]c3ncc(-c4ccccc4)cc23)cc1C1CCCC1 + CCc1ccc(CCOc2ccc(CC3SC(=O)NC3=O)cc2)nc1 [pioglitazone] (first compound 0.16 µM, partner dose 2 µM)
The “cleaved PARP positive nuclei fraction” value of the first is higher: 4280% for the first, 44.3% for the second.

First: COc1ccc(COc2ccc(Cc3cnc(N)nc3N)cc2OC)cc1 + O=S(=O)(c1ccccc1)N(CC(F)(F)F)c1ccc(C(O)(C(F)(F)F)C(F)(F)F)cc1 [T0901317] (first compound 1 µM, partner dose 1.4 µM)
Second: COc1cc2c(Oc3ccc4[nH]c(C)cc4c3F)ncnc2cc1OCCCN1CCCC1 [cediranib] + COc1ccc(-c2ccc3c(N4CCOCC4)nc(N4C[C@@H](C)O[C@@H](C)C4)nc3n2)cc1CO [KU0063794] (first compound 0.4 µM, partner dose 0.02 µM)
The “cleaved PARP positive nuclei fraction” value of the first is lower: 127% for the first, 179% for the second.

Compared with `NCC(=O)Nc1ccc(-n2nc(C(F)(F)F)cc2-c2ccc3c(ccc4ccccc43)c2)cc1` + COc1ccc(-c2ccc3c(N4CCOCC4)nc(N4C[C@@H](C)O[C@@H](C)C4)nc3n2)cc1CO [KU0063794] (first compound 1 µM, partner dose 0.02 µM), `O=S(=O)(c1ccccc1)N(CC(F)(F)F)c1ccc(C(O)(C(F)(F)F)C(F)(F)F)cc1` + CC(C)CCN1c2nc(Nc3cc(F)c(O)c(F)c3)ncc2N(C)C(=O)C1C [BID1870] (first compound 1.4 µM, partner dose 0.2 µM) is lower in “cleaved PARP positive nuclei fraction” value: 737% for the first, 66.7% for the second.

Compared with `NCC(=O)Nc1ccc(-n2nc(C(F)(F)F)cc2-c2ccc3c(ccc4ccccc43)c2)cc1` + COc1cc2ncnc(Nc3ccc(Oc4ccccc4)cc3)c2cc1OC [SrcI1] (first compound 1 µM, partner dose 2 µM), `COc1cc2c(Oc3ccc4[nH]c(C)cc4c3F)ncnc2cc1OCCCN1CCCC1` [cediranib] + O=C1NC(=O)/C(=C/c2ccc(-c3ccc(F)cc3O)o2)S1 [AS252424] (first compound 0.4 µM, partner dose 1 µM) is lower in “cleaved PARP positive nuclei fraction” value: 1310% for the first, 85.3% for the second.

`NCC(=O)Nc1ccc(-n2nc(C(F)(F)F)cc2-c2ccc3c(ccc4ccccc43)c2)cc1` + O=C1NC(=O)/C(=C/c2ccc(-c3ccc(F)cc3O)o2)S1 [AS252424] (first compound 1 µM, partner dose 1 µM) was tested, and the “cleaved PARP positive nuclei fraction” value was 3690%.
